About 7,500 (2.1%) of roughly 360,000 compounds were called active. The inconclusive results got no clear call from the source; some entries with a clear call stand among them for comparison. Calls follow the shape of the dose curve; as a rule, active = well fitted inhibition curve with a large enough effect; inconclusive = small, poorly fitted or top-dose-only effect, or effect the other way; inactive = flat fitted curve, though single readings scatter. Potencies beside an inconclusive call are fits to weak or partial responses and may not hold up.
Assay: Nrf2 qHTS screen for inhibitors; also: nearly all actives have a fitted effect of over 60% in size
Details: A549 ARE-Fluc reporter, luciferase luminescence, 18-24 h; activity change, negative = inhibition: at 46 µM (top of the series)
Summary of the method: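 Cells were seeded and rested 2 h, then exposed to compounds for 18-24 h. CellTiter-Fluor was read first as a viability measure. BugLite was added 15 min before the final luminescent read of ARE-luciferase activity in A549 cells.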
For `Cc1cc(N2CCOCC2)n2ncc(-c3ccccc3Cl)c2n1`, the Potency was inconclusive: 6.51 µM [activator, partial curve].
In the case of `Cc1cc(C(=O)NNC(=S)Nc2ccccc2)nn1C`, the Potency is reported as inconclusive: 20.6 µM [activator, partial curve].
With `CCCc1cc(NCc2ccccn2)n2nc(C)c(-c3ccccc3)c2n1` the Potency was inconclusive: 18.4 µM [falling, single point].
With `N#C/C(=N\Nc1ccc(Cl)cc1)C(=O)c1ccccc1` the Potency was active: 14.6 µM.
With `Cc1ccc(C(=O)N2CCC(Cc3ccccc3)CC2)cc1[N+](=O)[O-]` the Potency was inconclusive: 29.1 µM [falling, partial curve, poor fit].
For `c1ccc(OCCCCn2cnc3ccccc32)cc1`, the Potency was active: 23.1 µM.
With `Cc1nonc1C(=O)N/N=C/c1ccncc1` the Potency was inconclusive: 10.3 µM [activator, partial curve].
With `COc1ccc(-c2noc(CCCC(=O)N3CCOCC3)n2)cc1` the Potency was inconclusive: 14.6 µM [falling, partial curve].
In the case of `COc1ccc(C(=O)NC(Nc2ccc(C)cc2)C(Cl)(Cl)Cl)cc1` (stereo unspecified), the Potency is reported as active: 20.6 µM.
With `CCOc1ccc(C(=O)C[n+]2cccc3cc(C)ccc32)cc1` the Potency was inconclusive: 23.1 µM [falling, partial curve, poor fit].
For `CCn1c(C)nc2cc(C(=O)NNC(=S)Nc3ccccc3)ccc21`, the Potency was inconclusive: 1.46 µM [activator, full curve].
With `COCCNCCOCCOc1cccc(OC)c1` the Potency was inconclusive: 16.4 µM [activator, single point].
In the case of `O=C(Cn1[nH]c(=O)c2ccccc2c1=O)Nc1cccc(S(=O)(=O)N2CCCCCC2)c1`, the Potency is reported as inconclusive: 16.4 µM [falling, single point].
With `O=C(Nc1cc(Cl)ccc1O)c1cc(-c2ccc3c(c2)OCO3)on1` the “activity change, negative = inhibition” value was inactive: 11.4%.
In the case of `CCOC(=O)Cc1cc(=O)n2[nH]c(C)c(-c3ccc(Cl)cc3)c2n1`, the Potency is reported as inconclusive: 29.1 µM [falling, partial curve, poor fit].
In the case of `COCCCNS(=O)(=O)c1cccc(S(=O)(=O)c2cccc(S(=O)(=O)NCCCOC)c2)c1`, the Potency is reported as inconclusive: 16.4 µM [falling, single point].
For `Cc1cc2c(s1)c1cnn(Cc3ccc(C(F)(F)F)cc3F)c(=O)c1n2C`, the “activity change, negative = inhibition” value was inactive: 1.11%.
In the case of `Cc1ccc(C(=O)NCc2ccco2)cc1`, the “activity change, negative = inhibition” value is reported as inactive: 0.583%.
With `O=C(Cn1cnc2ccccc2c1=O)c1ccc(OC(F)F)cc1` the Potency was inconclusive: 29.1 µM [activator, partial curve].
With `COc1ccc(CCC(=O)Nc2cccc(S(=O)(=O)N3CCCC3)c2)cc1OC` the Potency was inconclusive: 20.6 µM [falling, single point].
For `CC(=O)c1nn(-c2cccc(Br)c2)cc1C(=O)c1ccc(Br)cc1`, the Potency was inconclusive: 0.184 µM [falling, partial curve, poor fit].
With `Cc1c(C(=O)N2CCCC2)oc2c1-c1nn(CC(=O)NCc3ccccc3F)cc1CC2` the Potency was inconclusive: 20.6 µM [falling, single point].
With `CC(=O)Nc1ccc(SC[C@H](CC(C)C)N2CCN(CC(C)C)CCC2=O)cc1` the Potency was inconclusive: 32.6 µM [activator, partial curve, poor fit].
In the case of `Cc1ccc(/C=C/C(=O)NC2CCCCCCC2)o1`, the Potency is reported as inconclusive: 2.31 µM [activator, full curve].
With `CCO[C@H]1OC(C(N)=O)=C[C@@H](C(C)(C)C)[C@@H]1CCCO` the “activity change, negative = inhibition” value was inactive: -13.3%.
With `CCCSc1ncc(Cl)c(C(=O)NCc2ccc(C)cc2)n1` the “activity change, negative = inhibition” value was inactive: -23.3%.
In the case of `CC(C)(C)NC(=S)Nc1ccc(Nc2ccccc2)cc1`, the Potency is reported as inconclusive: 23.1 µM [falling, partial curve, poor fit].
For `Cc1ccc(S(=O)(=O)N(C)Cc2ccc(C(=O)N/N=C/c3ccc(OC(F)F)cc3OC(F)F)cc2)cc1`, the Potency was active: 9.2 µM.
In the case of `Cc1cc(Cl)ccc1NC(=O)CCS(=O)(=O)c1ccc2c(c1)CC(C)N2C(=O)C1CC1` (stereo unspecified), the Potency is reported as inconclusive: 20.6 µM [falling, partial curve, poor fit].
For `CCc1ccc(S(=O)(=O)NCc2csc(C)n2)cc1`, the Potency was inconclusive: 13 µM [falling, partial curve, poor fit].
For `COc1ccc(OC)c(C(=O)NC(CC(N)=O)c2ccc(N3CCN(c4ccccn4)CC3)c([N+](=O)[O-])c2)c1` (stereo unspecified), the Potency was inconclusive: 32.6 µM [activator, single point].
In the case of `CCN(CC)CCNC(=O)C(=O)Nc1ccc(C(=O)OC)cc1`, the Potency is reported as inconclusive: 6.51 µM [falling, single point].
For `Cc1ccc(C)c(N(CC(=O)Nc2ccccc2C(=O)NCc2ccco2)S(=O)(=O)c2ccccc2)c1`, the “activity change, negative = inhibition” value was inactive: 2.02%.
In the case of `CCOC(=O)C1=C(c2ccccc2)c2ccccc2N(S(=O)(=O)C(F)(F)F)C1C(=O)OCC` (stereo unspecified), the “activity change, negative = inhibition” value is reported as inactive: -0.928%.
For `CC(C)NC(=O)C1=CC(c2ccc3c(c2)OCO3)=NS(=O)(=O)N1C`, the Potency was inconclusive: 11.6 µM [activator, partial curve].
With `O=C(Cc1cccc2ccccc12)N/N=C/c1ccncc1` the Potency was inconclusive: 13 µM [falling, partial curve, poor fit].
For `Cc1ccccc1NC(=O)COC(=O)c1c(-c2ccccc2)noc1C`, the Potency was inconclusive: 25.9 µM [falling, partial curve, poor fit].
With `COc1ccccc1CNC(=O)c1cc2cccc3c2n1CCS3` the Potency was inconclusive: 29.1 µM [activator, single point].
With `COc1ccc(-c2nnc(Nc3nc4c(OC)cccc4s3)o2)c(OC)c1` the “activity change, negative = inhibition” value was inactive: -19.9%.
In the case of `COc1ccc(C2/C=C\CN(S(=O)(=O)CC34CCC(CC3=O)C4(C)C)CC(=O)N2Cc2ccc(F)cc2)cc1` (stereo unspecified), the “activity change, negative = inhibition” value is reported as inactive: -7.27%.
For `O=C(CCSc1ccc(Cl)cc1)N1CCCCCC1`, the Potency was inconclusive: 1.46 µM [activator, full curve, poor fit].
For `COc1ccc(-c2nc(CSCC(=O)NCCc3ccc(OC)c(OC)c3)c(C)o2)cc1`, the Potency was inconclusive: 20.6 µM [falling, partial curve, poor fit].
With `CCc1nn2c(=O)c(S(=O)(=O)Nc3ccc(C)cc3C)c(C)nc2s1` the “activity change, negative = inhibition” value was inactive: -10.7%.
With `CCN(c1cccc(C)c1)S(=O)(=O)c1cc2c3c(c1)CCC(=O)N3CCC2` the Potency was inconclusive: 20.6 µM [falling, single point].
For `Cc1cc(C(=O)N2CCN(c3ccc([N+](=O)[O-])cc3)CC2)n[nH]1`, the Potency was inconclusive: 4.11 µM [falling, partial curve, poor fit].
For `COc1ccc(Cl)cc1NC(=O)C1COc2ccccc2O1` (stereo unspecified), the “activity change, negative = inhibition” value was inactive: 2.83%.
With `Cc1cc(NC(=O)CSc2nc3c(cc2C#N)CCCC3)no1` the Potency was inconclusive: 2.59 µM [activator, full curve].
For `Cc1nc2nc(-c3ccc(F)cc3)cn2nc1C`, the Potency was inconclusive: 2.06 µM [activator, partial curve].
In the case of `Cc1cc(N2CCCC2)nc2ccc(NC(=S)NCCCN3CCC(C)CC3)cc12`, the “activity change, negative = inhibition” value is reported as inactive: -1.07%.
In the case of `Cc1ccc(S(=O)(=O)c2nnn3c2nc(N(C)Cc2ccccc2)c2cc(Cl)ccc23)cc1C`, the Potency is reported as inconclusive: 6.51 µM [activator, single point].
With `COc1ccc(CNC(=O)CN2CCN(S(=O)(=O)c3c(C)c(C)cc(C)c3C)CC2)cc1OC` the Potency was inconclusive: 32.6 µM [falling, partial curve, poor fit].
In the case of `CC[C@H](C)[C@@H](C(=O)NCCCCCCCCCCC(=O)N1CCN(C(=O)OC(C)(C)C)CC1)n1cc(CCCCCNC(=O)OC(C)(C)C)nn1`, the Potency is reported as active: 5.8 µM.
For `COc1cc(NC(=O)COCc2cc(-c3ccc4c(c3)OCO4)on2)c(OC)cc1Cl`, the Potency was inconclusive: 29.1 µM [activator, single point].
In the case of `CCOC(=O)c1nc(C)n(-c2cc(Cl)ccc2Cl)n1`, the Potency is reported as inconclusive: 2.91 µM [activator, single point].
In the case of `O=S(=O)(NCCc1csc(-c2cccnc2)n1)c1ccc(Cl)s1`, the Potency is reported as inconclusive: 6.51 µM [falling, full curve].
With `CCCCC(=O)OCc1cc(=O)n2nc(C3CC3)sc2n1` the Potency was inconclusive: 23.1 µM [falling, single point].
With `COc1ccc(S(=O)(=O)N2CCCCCC2)cc1C(=O)N(C)CCOc1ccc(Cl)cc1` the Potency was inconclusive: 20.6 µM [falling, single point].
In the case of `O=C(O)CN1C(=O)/C(=C\c2cc([N+](=O)[O-])ccc2OCc2ccccc2Cl)SC1=S`, the “activity change, negative = inhibition” value is reported as inactive: 3.86%.
With `CC(C)CN1CCN(Cc2cccc3nccnc23)CC1CCO` (stereo unspecified) the Potency was inconclusive: 25.9 µM [activator, single point].
For `Cc1ccc(NP(=O)(c2ccc(N(C)C)cc2NC(=O)c2cccs2)N2CCOCC2)cc1` (stereo unspecified), the “activity change, negative = inhibition” value was inactive: 4.59%.
For `O=C(Nc1nc(-c2ccncc2)cs1)C1COc2ccccc2O1` (stereo unspecified), the Potency was inconclusive: 1.46 µM [falling, full curve, poor fit].
For `CCCCN(C(=O)CCC(=O)Nc1cc(C)on1)C(C(=O)NC1CCCC1)c1ccccc1C` (stereo unspecified), the Potency was inconclusive: 8.2 µM [activator, partial curve].
For `O=S(=O)(c1ccc(NC(=S)Nc2ccccc2)cc1)N1CCOCC1`, the “activity change, negative = inhibition” value was inactive: 5.22%.
In the case of `COc1cc2ccccc2cc1C(=O)Nc1ccc(N2CCN(C)CC2)cc1`, the Potency is reported as inconclusive: 11.6 µM [activator, partial curve].
In the case of `COc1ccc(S(=O)(=O)N2CCN(CCC(=O)Nc3ccc(F)cc3)CC2)cc1`, the Potency is reported as inconclusive: 20.6 µM [falling, single point].
In the case of `Cc1cc(-c2ccc(C)c(S(=O)(=O)Nc3ccc(C)c(N(C)C)c3)c2)on1`, the Potency is reported as inconclusive: 8.2 µM [falling, single point].

From PubChem BioAssay AID504444 (National Center for Advancing Translational Sciences (NCATS), 2011)
% is scaled to controls: 0 for no effect and ±100 for the full control effect; potency is read from the fitted curve at half-maximal effect.
